Earlier results as cited in patent EP2773641B1, “BIARYL ETHER SULFONAMIDES AND THEIR USE AS THERAPEUTIC AGENTS” (Xenon Pharmaceuticals Inc., priority 2011, dated 2013).

Details: administered topically (Lidoderm patch); cited from earlier work

## CCN(CC)CC(=O)Nc1c(C)cccc1C [Lidocaine, lidocaine]
  plasma concentrations: about 1 µM
